This is an account of results in paper PMC3647082.

Chains of the proteins cited; added tags and fusions are not shown. Residues count along the entry.
UniProt P56757: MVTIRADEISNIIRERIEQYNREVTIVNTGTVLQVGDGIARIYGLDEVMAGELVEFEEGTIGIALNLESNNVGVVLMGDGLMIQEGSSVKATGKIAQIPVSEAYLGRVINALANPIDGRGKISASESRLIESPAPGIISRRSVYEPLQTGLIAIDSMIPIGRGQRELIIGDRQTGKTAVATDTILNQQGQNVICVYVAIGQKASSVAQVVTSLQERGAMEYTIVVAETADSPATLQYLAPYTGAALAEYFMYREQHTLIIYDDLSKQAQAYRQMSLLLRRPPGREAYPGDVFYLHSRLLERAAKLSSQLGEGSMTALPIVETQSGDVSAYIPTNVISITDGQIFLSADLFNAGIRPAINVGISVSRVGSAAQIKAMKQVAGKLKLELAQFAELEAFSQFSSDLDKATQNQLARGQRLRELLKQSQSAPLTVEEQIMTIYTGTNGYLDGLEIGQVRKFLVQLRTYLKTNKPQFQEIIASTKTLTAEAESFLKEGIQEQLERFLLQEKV
UniProt P19366: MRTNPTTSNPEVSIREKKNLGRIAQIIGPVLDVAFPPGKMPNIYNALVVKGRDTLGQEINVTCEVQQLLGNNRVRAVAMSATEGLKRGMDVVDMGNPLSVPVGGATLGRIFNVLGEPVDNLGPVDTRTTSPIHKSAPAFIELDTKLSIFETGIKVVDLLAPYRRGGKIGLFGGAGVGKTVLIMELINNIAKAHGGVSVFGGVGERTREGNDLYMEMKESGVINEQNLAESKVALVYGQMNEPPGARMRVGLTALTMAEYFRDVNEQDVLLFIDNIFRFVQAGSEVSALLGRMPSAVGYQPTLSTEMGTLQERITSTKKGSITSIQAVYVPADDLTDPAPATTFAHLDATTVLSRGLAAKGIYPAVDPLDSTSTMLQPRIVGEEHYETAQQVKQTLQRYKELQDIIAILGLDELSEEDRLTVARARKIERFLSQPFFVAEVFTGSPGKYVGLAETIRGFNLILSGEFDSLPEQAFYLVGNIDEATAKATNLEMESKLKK
UniProt P56753: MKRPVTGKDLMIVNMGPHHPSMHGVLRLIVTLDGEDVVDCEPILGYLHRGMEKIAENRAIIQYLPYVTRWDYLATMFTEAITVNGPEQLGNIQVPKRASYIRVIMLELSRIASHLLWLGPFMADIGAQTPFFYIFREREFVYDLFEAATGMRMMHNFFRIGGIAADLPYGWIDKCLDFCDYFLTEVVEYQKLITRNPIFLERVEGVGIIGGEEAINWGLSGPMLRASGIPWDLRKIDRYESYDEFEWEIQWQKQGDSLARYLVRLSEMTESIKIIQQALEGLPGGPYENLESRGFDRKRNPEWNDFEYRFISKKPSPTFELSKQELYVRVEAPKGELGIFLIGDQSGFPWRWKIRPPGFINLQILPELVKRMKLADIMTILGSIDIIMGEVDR
UniProt P56752: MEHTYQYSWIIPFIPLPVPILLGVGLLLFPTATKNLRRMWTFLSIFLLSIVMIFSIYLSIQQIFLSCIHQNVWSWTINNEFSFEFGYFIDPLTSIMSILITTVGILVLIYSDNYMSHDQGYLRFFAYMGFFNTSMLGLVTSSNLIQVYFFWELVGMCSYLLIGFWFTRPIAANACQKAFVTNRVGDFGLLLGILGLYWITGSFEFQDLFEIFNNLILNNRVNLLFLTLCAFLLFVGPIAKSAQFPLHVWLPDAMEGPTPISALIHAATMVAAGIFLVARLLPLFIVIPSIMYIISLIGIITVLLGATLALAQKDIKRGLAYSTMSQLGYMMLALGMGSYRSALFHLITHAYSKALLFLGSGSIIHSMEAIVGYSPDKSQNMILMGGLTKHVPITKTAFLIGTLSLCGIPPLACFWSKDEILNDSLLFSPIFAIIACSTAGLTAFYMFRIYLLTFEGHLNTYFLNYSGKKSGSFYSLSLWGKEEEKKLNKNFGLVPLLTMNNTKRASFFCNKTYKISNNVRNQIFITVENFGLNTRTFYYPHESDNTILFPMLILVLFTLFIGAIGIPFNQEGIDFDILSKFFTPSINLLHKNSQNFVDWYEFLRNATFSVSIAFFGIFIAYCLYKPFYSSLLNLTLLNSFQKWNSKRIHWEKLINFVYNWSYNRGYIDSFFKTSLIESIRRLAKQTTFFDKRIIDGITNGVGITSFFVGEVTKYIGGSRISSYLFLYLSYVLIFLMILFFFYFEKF
UniProt Q9SGH4, residues 78-220: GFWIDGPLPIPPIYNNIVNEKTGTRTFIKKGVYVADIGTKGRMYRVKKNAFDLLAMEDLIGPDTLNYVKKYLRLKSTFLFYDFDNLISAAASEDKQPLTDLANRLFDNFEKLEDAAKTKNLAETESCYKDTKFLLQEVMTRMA
UniProt Q9XI73, residues 69-190: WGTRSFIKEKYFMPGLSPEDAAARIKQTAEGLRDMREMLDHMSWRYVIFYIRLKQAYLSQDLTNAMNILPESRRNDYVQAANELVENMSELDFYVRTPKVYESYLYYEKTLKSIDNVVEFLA
UniProt P26289: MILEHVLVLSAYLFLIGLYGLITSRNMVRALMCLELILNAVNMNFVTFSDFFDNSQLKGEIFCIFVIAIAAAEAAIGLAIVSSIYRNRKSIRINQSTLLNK
UniProt Q9CAC5, residues 47-191: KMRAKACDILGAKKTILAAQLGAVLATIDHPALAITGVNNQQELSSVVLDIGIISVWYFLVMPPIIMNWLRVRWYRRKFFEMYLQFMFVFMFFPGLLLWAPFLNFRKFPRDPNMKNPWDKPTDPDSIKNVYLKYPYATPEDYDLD
UniProt Q9S9N6, residues 45-461: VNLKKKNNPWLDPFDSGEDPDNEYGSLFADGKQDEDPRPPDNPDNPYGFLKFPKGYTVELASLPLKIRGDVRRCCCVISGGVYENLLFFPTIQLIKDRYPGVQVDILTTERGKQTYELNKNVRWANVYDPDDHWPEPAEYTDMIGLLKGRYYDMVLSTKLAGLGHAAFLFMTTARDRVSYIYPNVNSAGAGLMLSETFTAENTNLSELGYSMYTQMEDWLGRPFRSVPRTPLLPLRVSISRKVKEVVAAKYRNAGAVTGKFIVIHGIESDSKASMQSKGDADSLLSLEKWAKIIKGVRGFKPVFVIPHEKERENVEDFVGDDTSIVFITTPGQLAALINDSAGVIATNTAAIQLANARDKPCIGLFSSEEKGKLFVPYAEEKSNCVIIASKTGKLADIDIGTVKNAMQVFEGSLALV
UniProt P56755: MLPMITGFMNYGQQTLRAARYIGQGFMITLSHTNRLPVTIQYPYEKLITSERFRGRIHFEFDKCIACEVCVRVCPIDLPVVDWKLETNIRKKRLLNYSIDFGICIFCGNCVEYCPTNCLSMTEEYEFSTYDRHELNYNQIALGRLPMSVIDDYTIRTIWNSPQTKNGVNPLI
UniProt O80634, residues 81-238: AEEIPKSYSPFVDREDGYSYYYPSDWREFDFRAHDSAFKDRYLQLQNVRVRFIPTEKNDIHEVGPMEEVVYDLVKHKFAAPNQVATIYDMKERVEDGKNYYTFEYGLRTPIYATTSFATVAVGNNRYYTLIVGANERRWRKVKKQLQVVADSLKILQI
UniProt Q9FG89, residues 49-212: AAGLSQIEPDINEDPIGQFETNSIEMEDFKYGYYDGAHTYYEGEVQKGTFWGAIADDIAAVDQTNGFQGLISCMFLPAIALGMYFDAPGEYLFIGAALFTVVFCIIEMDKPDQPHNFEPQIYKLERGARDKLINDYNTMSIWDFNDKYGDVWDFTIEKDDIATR
UniProt P56771, residues 36-320: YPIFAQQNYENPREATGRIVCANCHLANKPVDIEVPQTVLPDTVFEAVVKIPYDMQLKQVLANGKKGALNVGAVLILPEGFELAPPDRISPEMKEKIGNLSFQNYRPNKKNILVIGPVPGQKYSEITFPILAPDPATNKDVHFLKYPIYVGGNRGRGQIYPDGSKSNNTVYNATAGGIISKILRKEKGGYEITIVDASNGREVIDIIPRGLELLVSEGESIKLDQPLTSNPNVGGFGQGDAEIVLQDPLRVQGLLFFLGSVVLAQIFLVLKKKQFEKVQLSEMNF
UniProt Q9ZR03, residues 51-229: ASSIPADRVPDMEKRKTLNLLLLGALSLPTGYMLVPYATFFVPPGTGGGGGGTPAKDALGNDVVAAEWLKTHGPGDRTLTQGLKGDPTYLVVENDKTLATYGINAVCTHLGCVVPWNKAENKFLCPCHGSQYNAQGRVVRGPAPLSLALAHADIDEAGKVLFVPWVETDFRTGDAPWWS
UniProt P56774: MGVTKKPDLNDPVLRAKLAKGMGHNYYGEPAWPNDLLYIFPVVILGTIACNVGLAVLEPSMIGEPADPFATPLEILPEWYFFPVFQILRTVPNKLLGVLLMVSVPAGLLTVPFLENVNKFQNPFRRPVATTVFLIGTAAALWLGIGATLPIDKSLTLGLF
UniProt P56773: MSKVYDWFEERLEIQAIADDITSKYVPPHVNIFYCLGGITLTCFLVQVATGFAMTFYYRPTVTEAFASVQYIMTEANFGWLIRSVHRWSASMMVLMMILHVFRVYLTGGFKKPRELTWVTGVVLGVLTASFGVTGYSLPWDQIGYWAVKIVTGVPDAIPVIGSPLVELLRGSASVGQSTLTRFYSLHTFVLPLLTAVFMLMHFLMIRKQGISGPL
UniProt P56766: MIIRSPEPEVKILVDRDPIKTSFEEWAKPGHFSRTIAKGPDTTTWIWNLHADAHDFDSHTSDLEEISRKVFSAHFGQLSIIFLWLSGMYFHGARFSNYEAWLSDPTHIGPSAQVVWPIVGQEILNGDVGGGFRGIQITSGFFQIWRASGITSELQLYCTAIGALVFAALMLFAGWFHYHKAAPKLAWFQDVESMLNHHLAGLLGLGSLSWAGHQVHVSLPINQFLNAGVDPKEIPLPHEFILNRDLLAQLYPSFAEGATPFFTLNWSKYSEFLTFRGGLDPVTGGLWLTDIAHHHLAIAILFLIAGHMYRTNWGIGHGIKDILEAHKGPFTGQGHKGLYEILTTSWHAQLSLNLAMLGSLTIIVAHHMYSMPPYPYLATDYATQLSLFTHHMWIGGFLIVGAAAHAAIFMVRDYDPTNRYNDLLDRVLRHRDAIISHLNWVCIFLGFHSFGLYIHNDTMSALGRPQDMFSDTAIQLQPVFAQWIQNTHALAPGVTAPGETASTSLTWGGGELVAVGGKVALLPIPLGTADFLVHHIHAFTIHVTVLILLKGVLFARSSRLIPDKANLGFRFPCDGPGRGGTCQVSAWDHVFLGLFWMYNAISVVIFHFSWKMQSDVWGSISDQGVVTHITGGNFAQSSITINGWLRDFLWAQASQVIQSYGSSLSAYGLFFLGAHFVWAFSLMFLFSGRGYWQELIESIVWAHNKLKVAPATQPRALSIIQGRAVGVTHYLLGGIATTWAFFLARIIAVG
UniProt Q9SUI5, residues 47-130: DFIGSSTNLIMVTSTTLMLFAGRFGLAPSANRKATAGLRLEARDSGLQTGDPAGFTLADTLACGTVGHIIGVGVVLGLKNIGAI
UniProt Q9SY97, residues 40-273: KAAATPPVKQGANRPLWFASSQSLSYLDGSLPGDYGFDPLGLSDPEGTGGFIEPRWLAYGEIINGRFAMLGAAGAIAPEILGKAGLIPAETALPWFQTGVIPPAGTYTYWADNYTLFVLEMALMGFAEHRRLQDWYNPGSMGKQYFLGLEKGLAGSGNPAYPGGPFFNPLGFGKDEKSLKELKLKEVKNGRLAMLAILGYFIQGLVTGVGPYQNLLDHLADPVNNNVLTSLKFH
UniProt Q9SUI4, residues 51-219: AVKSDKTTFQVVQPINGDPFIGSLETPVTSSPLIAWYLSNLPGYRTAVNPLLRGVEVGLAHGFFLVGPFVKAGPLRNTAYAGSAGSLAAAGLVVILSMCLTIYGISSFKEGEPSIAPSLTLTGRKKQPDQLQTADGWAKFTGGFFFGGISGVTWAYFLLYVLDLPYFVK
UniProt P56767: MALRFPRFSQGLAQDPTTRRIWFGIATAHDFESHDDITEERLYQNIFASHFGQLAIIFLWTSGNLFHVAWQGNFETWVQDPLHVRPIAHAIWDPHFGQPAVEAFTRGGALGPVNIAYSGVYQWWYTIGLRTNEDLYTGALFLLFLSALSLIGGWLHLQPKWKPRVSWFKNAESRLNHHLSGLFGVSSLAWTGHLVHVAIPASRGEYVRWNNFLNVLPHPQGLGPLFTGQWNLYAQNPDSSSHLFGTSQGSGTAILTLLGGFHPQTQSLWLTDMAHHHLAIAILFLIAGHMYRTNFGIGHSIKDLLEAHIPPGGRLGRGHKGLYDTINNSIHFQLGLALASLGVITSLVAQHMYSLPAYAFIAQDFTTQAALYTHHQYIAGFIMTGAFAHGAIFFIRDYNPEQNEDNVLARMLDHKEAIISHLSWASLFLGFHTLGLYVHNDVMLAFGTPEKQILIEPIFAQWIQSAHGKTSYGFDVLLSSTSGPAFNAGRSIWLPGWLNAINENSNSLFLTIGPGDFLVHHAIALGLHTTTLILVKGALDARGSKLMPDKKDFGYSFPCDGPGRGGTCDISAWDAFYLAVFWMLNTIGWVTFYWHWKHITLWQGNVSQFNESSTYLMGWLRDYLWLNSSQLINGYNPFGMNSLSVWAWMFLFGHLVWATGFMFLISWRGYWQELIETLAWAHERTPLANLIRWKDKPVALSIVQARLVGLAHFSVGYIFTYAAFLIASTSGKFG
UniProt Q01667, residues 36-241: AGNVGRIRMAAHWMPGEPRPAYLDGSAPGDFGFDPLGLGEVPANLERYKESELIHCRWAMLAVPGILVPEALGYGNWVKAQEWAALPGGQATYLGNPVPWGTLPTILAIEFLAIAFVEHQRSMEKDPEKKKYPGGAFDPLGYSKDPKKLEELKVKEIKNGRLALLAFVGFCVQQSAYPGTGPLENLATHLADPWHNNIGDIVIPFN

The labels stand for the following.
B1: AtpC1 (protein, UniProt Q01908 51-373)
chain: ASLRELRDRIDSVKNTQKITEAMKLVAAAKVRRAQEAVVNGRPFSETLVEVLYNINEQLQTDDVDVPLTKVRPVKKVALVVVTGDRGLCGGFNNFIIKKAEARIKELKGLGLEYTVISVGKKGNSYFLRRPYIPVDKYLEAGTLPTAKEAQAVADDVFSLFISEEVDKVELLYTKFVSLVKSEPVIHTLLPLSPKGEICDINGTCVDAAEDEFFRLTTKEGKLTVERETFRTPTADFSPILQFEQDPVQILDALLPLYLNSQILRALQESLASELAARMSAMSSASDNASDLKKSLSMVYNRKRQAKITGEILEIVAGANAQV
B2: AtpI (protein, UniProt P56758 1-249)
chain: MNVLSCSINTLIKEGLYEISGVEVGQHFYWQIGGFQVHAQVLITSWVVIAILLGSAVLAIRNPQTIPTDGQNFFEFVLEFIRDVSKTQIGEEYGPWVPFIGTLFLFIFVSNWSGALLPWKIIQLPQGELAAPTNDINTTVALALLTSVAYFYAGLSKKGLGYFSKYIQPTPILLPINILEDFTKPLSLSFRLFGNILADELVVVVLVSLVPLVVPIPVMFLGLFTSGIQALIFATLAAAYIGESMEGHH
B3: AtpD (protein, UniProt Q9SSS9 48-234)
chain: SATAASSYAMALADVAKRNDTMELTVTDIEKLEQVFSDPQVLNFFANPTITVEKKRQVIDDIVKSSSLQSHTSNFLNVLVDANRINIVTEIVKEFELVYNKLTDTQLAEVRSVVKLEAPQLAQIAKQVQKLTGAKNVRVKTVIDASLVAGFTIRYGESGSKLIDMSVKKQLEDIASQLELGEIQLAT
B4: AtpE (protein, UniProt P09468 1-132)
chain: MTLNLCVLTPNRIVWDSEVKEIILSTNSGQIGVLANHAPIATAVDIGILKIRLANQWLTMALMGGFARIGNNEITILVNDAEKNSDIDPQEAQQTLEIAEANLRKAEGKRQTIEANLALRRARTRVEALNTI
B5: AtpF (protein, UniProt P56759 1-184)
chain: MKNLTDSFVYLGHWPSAGSFGFNTDILATNPINLSVVFGVLIFFGKGVLNDLLDNRKQRILNTIRNSEELREGAIQQLENARARLRNVETEADKFRVNGYSEIEREKLNLINSTYKTLKQLENYKNETILFEQQRTINQVRERVFQQALQGAIGTLNSCLSNELHLRTINANIGMFGTMKEITD
B6: NdhU (protein, UniProt Q84VQ4 54-218)
chain: AEAETEGGSSTAVDEAPKESPSLISALNVERALRGLPITDVDHYGRLGIFRNCSYDQVTIGYKERVKELKEQGLDEEQLKTKMDLIKESYTILSTVEERRMYDWSLARSEKAERYVWPFEVDIMEPSREEPPPQEPEDVGPTRILGYFIGAWLVLGVALSVAFNR
B7: PsaH2 (protein, UniProt Q9SUI6 51-145)
chain: KYGDKSVYFDLEDLGNTTGQWDVYGSDAPSPYNPLQSKFFETFAAPFTKRGLLLKFLILGGGSLLTYVSANSTGDVLPIKRGPQEPPKLGPRGKL

Results are given in words; binding and its absence hold for the method and conditions named. Some results given as binding are weak or reduced against the parent protein; the word gives no strength.

The target in the first experiment is AtpA (Arabidopsis thaliana (endogenous in thylakoid membranes)) (UniProt P56757). The experiment can be described thus: native gel or EMSA; BN-PAGE (4-13% gradient, 4°C, 14 h at 40 V) of purified Arabidopsis thylakoid membranes solubilised with 1% n-dodecyl-β-D-maltoside; lane cut into 60 slices, in-gel trypsin digestion, LC-MS/MS; emPAI-based migration profiles compared (co-migration).
Turning to AtpB (from UniProt P19366 1-498), the binding entry is given as “binds”. Consider B1, for which the binding result is “binds”.

On to B2, for which the binding entry was “binds”. For B3, the binding result is given as “binds”. Still for that read-out and setting: as for B4, the entry is “binds”. As for B5, the binding entry is “binds”.

For a further experiment, the target named is NdhH (Arabidopsis thaliana (endogenous in thylakoid membranes)) (UniProt P56753). The description is as above.
On to NdhF (from UniProt P56752 1-746), for which the binding entry is given as “binds”.

For NdhN (from UniProt Q9LVM2 46-209), the binding entry is “binds”. The same measure, in the same setting: as for PnsL3 (from UniProt Q9SGH4 78-220), the entry is “binds”; as for PnsL2 (from UniProt Q9XI73 69-190), “binds”; as for NdhK (from UniProt P56756 1-225), “binds”. For the molecule NdhJ (from UniProt P56754 1-158), the binding result was “binds”. NdhE (from UniProt P26289 1-101): the binding entry is on record as “binds”. On the same count and under the same terms, the value for NdhL (from UniProt Q9CAC5 47-191) was “binds”; that for PnsB1 (from UniProt Q9S9N6 45-461) was “binds”. As for NdhI (from UniProt P56755 1-172), the binding entry is reported as “binds”. With PnsL1 (from UniProt O80634 81-238), the binding result is “binds”. On the same count and under the same terms, as for PnsB2 (from UniProt Q94AQ8 18-348), the entry is “binds”. PnsB5 (from UniProt Q9FG89 49-212): the binding result is given as “binds”.

As to B6, the binding result was “binds”.

For the next experiment, the target named is PetA (Arabidopsis thaliana (endogenous in thylakoid membranes)) (UniProt P56771). Described as above.
In the case of PetC (from UniProt Q9ZR03 51-229), the binding result was “binds”.

Regarding PetD (from UniProt P56774 1-160), the binding entry is “binds”. Consider PetB (from UniProt P56773 1-215), for which the binding entry is on record as “binds”.

The target of another experiment is PsaA (Arabidopsis thaliana (endogenous in thylakoid membranes)) (UniProt P56766). The description is as above.
In the case of PsaK (from UniProt Q9SUI5 47-130), the binding entry is given as “binds”. For the molecule Lhca3 (from UniProt Q9SY97 40-273), the binding result is given as “binds”. Consider PsaL (from UniProt Q9SUI4 51-219), for which the binding result is recorded as “binds”. The same measure, in the same setting: the value for PsaB (from UniProt P56767 1-734) was “binds”; that for PsaF (from UniProt Q9SHE8 68-221) was “binds”; that for Lhca2 (from UniProt Q9SYW8 44-257) was “binds”. Lhca1 (from UniProt Q01667 36-241): the binding entry is “binds”. Still for that read-out and setting: the value for PsaG (from UniProt Q9S7N7 61-160) was “binds”; that for B7 was “binds”.
